Experimental data as given in US7803769B2 (priority 2006, dated 2010).
For part of these data: At least one peptide structure holds a part that was inferred or is arguable (an end, a ring closure or a residue). Some entries share one result that the patent states for a list of compounds. Bridge positions count the residues as written; N and C are the ends. Peptide text beside a SMILES is read from it.

Legend:
[1] = system: thapsigargin-induced IL-2 production in human whole blood; settings: read-out: Analogue Activity WB/IL-2 (IC50)
[2] = system: adoptive transfer EAE model of multiple sclerosis; settings: rat, in vivo, sc

Structure (SMILES) | IC50 [1] | EAE clinical score (end of study / peak clinical severity score average) [2]
CC[C@H](C)[C@@H]1NC(=O)[C@H](CCCCN)NC(=O)[C@@H](NC(=O)[C@H](CCCCN)NC(=O)[C@@H](NC(=O)[C@H](CC(N)=O)NC(=O)[C@@H](NC(=O)[C@@H](NC(=O)[C@@H](NC(=O)CN)C(C)C)[C@@H](C)CC)[C@@H](C)CC)C(C)C)CSSC[C@@H]2NC(=O)[C@H](CCCCN)NC(=O)CNC(=O)[C@H](CCC(=O)O)NC(=O)[C@H](CCCNC(=N)N)NC(=O)[C@H](CCSC)NC(=O)CNC(=O)[C@H](C)NC(=O)[C@H](CCCCN)NC(=O)[C@H](CCCCN)NC(=O)[C@@H]3CSSC[C@@H](C(=O)N[C@H](C(=O)N4CCC[C@H]4C(=O)N[C@@H](CCCCN)C(=O)O)[C@@H](C)O)NC(=O)[C@H](Cc4c[nH]cn4)NC(=O)[C@H](CSSC[C@H](NC(=O)[C@H](CCC(N)=O)NC(=O)[C@H](CCCNC(=N)N)NC(=O)[C@H](CO)NC1=O)C(=O)N[C@@H](CC(C)C)C(=O)N[C@@H](CCC(=O)O)C(=O)N1CCC[C@H]1C(=O)N3)NC(=O)[C@H](CCCCN)NC(=O)CNC(=O)[C@H](CC(N)=O)NC(=O)[C@H](CCSC)NC2=O [F25E] (H-GVIINVKCKISRQCLEPCKKAGMREGKCMNGKCHCTPK-OH; disulfide 8-28, 14-33, 18-35) | ≥ 100 nM | –
CC[C@H](C)[C@@H]1NC(=O)[C@H](CCCCN)NC(=O)[C@@H](NC(=O)[C@H](CCCCN)NC(=O)[C@@H](NC(=O)[C@H](CC(N)=O)NC(=O)[C@@H](NC(=O)[C@@H](NC(=O)[C@@H](NC(=O)CN)C(C)C)[C@@H](C)CC)[C@@H](C)CC)C(C)C)CSSC[C@@H]2NC(=O)[C@H](CCCCN)NC(=O)[C@H](CCC(=O)O)NC(=O)[C@H](Cc3ccccc3)NC(=O)[C@H](CCCNC(=N)N)NC(=O)[C@H](CCSC)NC(=O)CNC(=O)[C@H](C)NC(=O)[C@H](CCCCN)NC(=O)[C@H](CCCCN)NC(=O)[C@@H]3CSSC[C@@H](C(=O)N[C@H](C(=O)N4CCC[C@H]4C(=O)N[C@@H](CCCCN)C(=O)O)[C@@H](C)O)NC(=O)[C@H](Cc4c[nH]cn4)NC(=O)[C@H](CSSC[C@H](NC(=O)[C@H](CCC(N)=O)NC(=O)[C@H](CCCNC(=N)N)NC(=O)[C@H](CO)NC1=O)C(=O)N[C@@H](CC(C)C)C(=O)N[C@@H](CCC(=O)O)C(=O)N1CCC[C@H]1C(=O)N3)NC(=O)[C@H](CCCCN)NC(=O)CNC(=O)[C@H](CC(N)=O)NC(=O)[C@H](CCSC)NC2=O [G26E] (H-GVIINVKCKISRQCLEPCKKAGMRFEKCMNGKCHCTPK-OH; disulfide 8-28, 14-33, 18-35) | ≥ 100 nM | –
CC[C@H](C)[C@@H]1NC(=O)[C@@H](NC(=O)[C@H](CO)NC(=O)[C@@H](N)CCCNC(=N)N)CSSC[C@@H](C(=O)O)NC(=O)[C@H]([C@@H](C)O)NC(=O)CNC(=O)[C@@H]2CSSC[C@@H]3NC(=O)[C@H](CCC(N)=O)NC(=O)[C@H](Cc4ccccc4)NC(=O)[C@H](C)NC(=O)[C@H]([C@@H](C)O)NC(=O)[C@H](CSSC[C@H](NC(=O)[C@H](Cc4ccccc4)NC(=O)[C@H](CO)NC(=O)[C@H](CC(C)C)NC(=O)[C@H](CCCNC(=N)N)NC(=O)[C@H](Cc4ccc(O)cc4)NC(=O)[C@H](CCCCN)NC(=O)[C@H](CCSC)NC(=O)[C@H](CO)NC(=O)[C@H](Cc4c[nH]cn4)NC(=O)[C@H](CCCCN)NC3=O)C(=O)N[C@@H](CCCNC(=N)N)C(=O)N[C@@H](CCCCN)C(=O)N[C@@H]([C@@H](C)O)C(=O)N2)NC(=O)[C@H](CCCNC(=N)N)NC(=O)[C@H](CO)NC(=O)[C@H](CCCCN)NC(=O)[C@@H]2CCCN2C(=O)[C@H]([C@@H](C)CC)NC(=O)[C@H]([C@@H](C)O)NC(=O)[C@H](CC(=O)O)NC1=O [ShK, reference compound] | – | ≥ 5.5
